Data taken from ChEMBL document CHEMBL3108738, “The chemical and biological potential of C ring modified triterpenoids” (Eur J Med Chem, 2014).

Tested on: A549
Assay: Cytotoxicity against human A549 cells after 96 hrs by SRB assay
Assay type: functional, cell-based
Conditions: A549, 96 h

For CN[C@@H]1C[C@H]2O[C@@](C)([C@@H]1OC)n1c3ccccc3c3c4c(c5c6ccccc6n2c5c31)C(=O)NC4 [STAUROSPORINE], the IC50 was 600 nM.
